This passage reports binding results from PMC7765489, “Structural Characterization of Glycerol Kinase from the Thermophilic Fungus Chaetomium thermophilum” (International Journal of Molecular Sciences, 2020).

These are yes or no findings as the source states them, for the method shown. Some entries that bind do so weakly or less than the wild type.

For assay [1], the target named is glycerol kinase from Chaetomium thermophilum (Chaetomium thermophilum) (UniProt G0SAG9). Kind of assay: SEC; analytical gel filtration of CtGK in the presence of fructose-1,6-bisphosphate (FBP); conditions not shown; both purified. (SEC sorts molecules by how far they enter the pores of the column.)
Assay [2] has the same target. The experiment in a line: crystal structure; sitting-drop vapor diffusion at 293 K, 0.2 M CaCl2 and 18% PEG 3350; apo (ethylene glycol cryoprotectant) and glycerol-bound crystals, five space groups; in P3(2)21 and P222(1) the dimer is completed by a symmetry-related chain; both purified.

B1: glycerol kinase from Chaetomium thermophilum (enzyme, UniProt G0SAG9 67-590, looked up)
chain: FVGSIDQGTTSSRFLIFNGEGNPVASHQIEFENLYPKSGWHEQDPYELLNSVQQCIDGAMHKFASLGYSKENIRAIGITNQRETTVVWDSVTGEPLHNAIVWPDTRTSALVRELKARQSADSLLELCGLPLSTYPSSVKLLWLIQNVDAVKQAYEEGRLAFGTVDSWLIYKLNGGAQAERPIHVTDSTNASRTMFMNLRTLQYDDKLLGFFGIDRNKIKLPKIVPSSDPEAFGKVATGALAGVPIAGCLGDQSSALVGQCGFSPGQAKNTYGTGCFLLYNVGTEPVISKYGLLATVAYDFGRGRKPVYALEGSIAVAGAGITFLMNNLGFAPKPSEINALAESVLDNGGVVFVTAFSGLFAPYWIDDAKGTLFGITQHTTKGHIARATLEATCYQTRAILDAMEKDSGHKLESLAVDGGLSASDLCMQTQADISGIPVDRPRMRETTALGAAIAAGLATGVWRELDHVKESIAGGANGNGKKNAREVFYPKMDRKKAERLFRKWEQAVEMSRGWVREQEEEDGE
notes: glycerol kinase, Chaetomium thermophilum, UniProt G0SAG9, residues 67-590; codon-optimised synthetic gene in pET24d with N-terminal His-Tag and TEV site; The crystal models begin at residue 65 (67 for chain B) although the construct is stated as 67-590; also called CtGK; GK; source: E. coli BL21 (DE3), purified (Ni-Sepharose, TEV cleavage, second Ni-Sepharose, gel filtration on Superdex 75); not …
Consider B1, for which the binding result in assay [1] and in assay [2] was “binds” each time.
